The target in test [1] is T1, Bombyx mori acetyltransferase cyclic adenosine monophosphate response element binding protein (CREB) binding protein (BmCBP) (Bombyx mori (endogenous in BmN)) (UniProt Q8MYA9).
T1 sequence: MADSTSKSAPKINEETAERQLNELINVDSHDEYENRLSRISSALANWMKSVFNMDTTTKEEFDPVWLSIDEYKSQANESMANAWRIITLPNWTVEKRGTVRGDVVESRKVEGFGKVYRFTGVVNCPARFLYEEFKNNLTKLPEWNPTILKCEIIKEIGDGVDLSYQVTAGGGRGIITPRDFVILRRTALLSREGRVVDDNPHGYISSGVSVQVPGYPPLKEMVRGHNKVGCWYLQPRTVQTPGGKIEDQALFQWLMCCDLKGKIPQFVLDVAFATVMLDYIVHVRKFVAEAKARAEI
The experiment in a line: co-IP; BmN cells transfected with pIEX-1-si-GFP-BmApoLp-II, lysed 72 h post-transfection at 4 °C; Dynabeads Protein G loaded with anti-His antibody or rabbit anti-BmCBP antibody, incubated with the cell lysate, washed three times, Western blotting; IgG antibody as negative control; both …. For orientation: Immunoblotting shows a protein as a band on a membrane.

The target of test [2] is His-BmApoLp-II protein (Bombyx mori apolipophorin II) (Bombyx mori). The description is as above.

No constants are given. Whether binding was seen depends on the method and setting. In cells and extracts the contact can be indirect. Binding calls can cover weak binding; strength is not graded here.

In the case of “His-BmApoLp-II protein (Bombyx mori apolipophorin II)”, the binding entry in test [1] is “binds”.

B1: Bombyx mori acetyltransferase cyclic adenosine monophosphate response element binding protein (CREB) binding protein (BmCBP) (enzyme, UniProt Q8MYA9 1-297)
chain: T1 sequence
Regarding B1, in test [2], the binding result was “binds”.

These data come from PMC10146067.
